Assay results reported in article doi:10.1101/2023.12.20.572708.
These are yes or no findings as the source states them, for the method shown.

Protein sequences, listed by entry. Tags and fused reporters are not part of them. Lines headed by an entry give the natural chain unless they say otherwise; changes in a name come on top. Residues count along the entry.
UniProt P04146, 1-185, stated change not applied: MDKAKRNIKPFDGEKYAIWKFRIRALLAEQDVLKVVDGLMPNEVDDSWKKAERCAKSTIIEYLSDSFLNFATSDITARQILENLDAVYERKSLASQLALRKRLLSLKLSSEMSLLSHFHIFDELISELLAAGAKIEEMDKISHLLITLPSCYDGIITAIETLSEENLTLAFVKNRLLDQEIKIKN

Target: Copia^GagΔNC (Drosophila) (UniProt P04146)
Assay: SEC

“Copia^GagΔNC (from UniProt P04146 1-185) (domain or fragment)” was tested, and the binding was “no binding”.
